Measured values reported in PubChem BioAssay AID2685 (National Center for Advancing Translational Sciences (NCATS), 2010).
Some of the results follow. These are further read-outs of the screen, such as a control signal, another cell line or another target. No call is given for them. Most of these compounds were active or inconclusive in the main read-out, so they are no random draw. Potencies come from curve fits of mixed quality, noted in brackets.

Assay: qHTS Assay for Lipid Storage Modulators in Drosophila S3 Cells;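 for cell number change: cells counted by Cell Tracker Red CMTPX staining in the red channel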
Conditions: BODIPY lipid droplet fluorescence, 18-24 h; for cell number change: measured here: cell count max response, cells fed with added oleic acid
Outline: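 Drosophila S3 cells got compounds at several concentrations plus oleic acid (400 uM solution). Laser-scanning cytometry with 488 nm excitation read lipid droplets at 500-530 nm and cells at 575-640 nm. Percent activity was relative to 20 uM Triacsin C.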

[1] = measured here: cell number channel AC50, cells fed with added oleic acid
[2] = measured here: lipid fluorescence (Fed channel) AC50, cells fed with added oleic acid

Row | SMILES | cell number change [%] | AC50 [1] | AC50 [2]
1 | COc1cc(/C=N/NC(=O)Nc2ccccc2)ccc1OCCOc1ccccc1C | -43.6 | 0.164 µM [falling, full curve, poor fit] | 3.66 µM [rising, partial curve]
2 | COC(=O)c1ccc(NC(=O)CS(=O)(=O)c2ccccc2)cc1 | -7.94 |  | 29.1 µM [falling, single point]
3 | O=C(NCCCN1CCCC1=O)c1cccc(S(=O)(=O)NCc2ccccc2)c1 | -13.1 |  | 7.31 µM [falling, partial curve]
4 | COc1ccccc1-n1ccnc(SCC(=O)NCc2ccccc2)c1=O |  |  | 29.1 µM [falling, single point]
5 | CCOC(=O)c1c(-c2ccco2)csc1N | -31.9 | 0.92 µM [falling, full curve, poor fit] | 
6 | Cc1ccc(N(C)S(=O)(=O)c2ccc3c(c2)NC(=O)C(C)S3)cc1 (configuration not stated) | 2.36 |  | 29.1 µM [rising, single point]
7 | O=C(CCn1c(=O)c2sccc2n(CC(=O)OCc2ccccc2)c1=O)NCc1ccccc1 | 3.4 | 0.326 µM [rising, full curve] | 0.291 µM [rising, partial curve, poor fit]
8 | COc1cc(C(=O)N2C[C@H]3CC[C@H]2C3)ccc1OC1CCN(C(C)=O)CC1 | 19.3 |  | 29.1 µM [rising, single point]
9 | COc1ccc(N/N=C(/C)c2cnnc(-c3ccccc3)n2)cc1 | 23.3 |  | 1.84 µM [rising, partial curve]
10 | CCn1cc(C(=O)N(C)c2ccc(OC)cc2)c2cc(OC)c(OC)cc2c1=O | -19.8 | 4.11 µM [falling, single point] | 
11 | Clc1ccc(OCCCc2nc(-c3cccnc3)no2)c(Cl)c1 |  |  | 9.2 µM [falling, partial curve]
12 | C/C(=N\NC(=O)c1cccc([N+](=O)[O-])c1)c1cccnc1 | 29 |  | 0.82 µM [falling, full curve, poor fit]
13 | Cc1cccc(N2C(=O)CC(N3CCN(c4ccc(Cl)cc4)CC3)C2=O)c1 (configuration not stated) | 2.64 |  | 
14 | CCCC(CCC)=NNc1ccc(S(=O)(=O)Nc2ccccc2OC)cc1[N+](=O)[O-] | -18 |  | 
15 | COc1ccc(NC(C)C(=O)Nc2cc(C(F)(F)F)ccc2N2CCOCC2)c(OC)c1 (configuration not stated) | -33.3 | 0.92 µM [falling, full curve, poor fit] | 
16 | O=c1[nH][nH]cc1C=Nc1ccc(Cl)cc1 | 31.7 |  | 5.8 µM [falling, partial curve]
17 | COc1ccc([N+](=O)[O-])cc1C1NN=C(c2cccc3ccccc23)S1 (configuration not stated) | 64.5 | 1.16 µM [rising, full curve] | 2.91 µM [rising, full curve, poor fit]
18 | COCCn1c(SCc2cccc([N+](=O)[O-])c2)nc2ccccc2c1=O | 19.1 |  | 
19 | O=C(NCc1cccnc1)c1ccc(NC(=O)c2ccc(Br)cc2)cc1 | -0.451 |  | 6.51 µM [rising, single point]
20 | CCOc1ccccc1NC(=O)c1ccc2nc[nH]c2c1 | -6.96 |  | 6.51 µM [rising, partial curve, poor fit]

Row | SMILES | cell number change [%] | AC50 [1] | AC50 [2]
21 | CCCCN1C2=C(C(=O)CC(C)(C)C2)C(c2ccccc2)C2=C1c1ccccc1C2=O (configuration not stated) |  | 6.51 µM [rising, single point] | 
22 | CCOC(=O)c1c(C)n(C)c2ccc(OC)c(NC(=O)CN3CCC4(CC3)OCCO4)c12 | 0.245 |  | 2.59 µM [rising, single point]
23 | O=C(CSc1nnc(CNc2ccc(F)cc2)n1Cc1ccco1)N1CCCC1 | 7.83 |  | 20.6 µM [rising, single point]
24 | Cn1c(-[n+]2c(-c3ccccc3)cc(-c3ccccc3)cc2-c2ccccc2)nc2cc([N+](=O)[O-])ccc21 | -57.7 | 16.4 µM [falling, single point] | 16.4 µM [falling, single point]
25 | CC(=O)Nc1c(-c2cc(=O)oc3cc(C)ccc23)oc2ccccc12 | 66.7 | 8.2 µM [rising, partial curve] | 
26 | Cc1cccc(C)c1NC1=NCCCCC1 | 48.5 |  | 
27 | COc1ccc(Br)cc1C(=O)CCC(=O)OCC(=O)Nc1cc(C(N)=O)cc(C(N)=O)c1 | 10.5 |  | 
28 | Cc1c(NC(=O)c2cccc(F)c2)c(=O)n(-c2ccccc2)n1C | -31.1 | 32.6 µM [falling, single point] | 14.6 µM [rising, partial curve]
29 | COC(=O)c1c(NC(=O)/C=C/C(=O)O)sc(Cc2ccccc2)c1C | -35.5 | 0.116 µM [falling, full curve, poor fit] | 
30 | NC(=O)NC(=O)CSc1nc2sc(-c3ccccc3)cc2c(=O)n1-c1ccccc1 | 32.2 |  | 16.4 µM [rising, single point]
31 | O=C(O)Cn1cc(CN2CCOCC2)c2ccccc21 | 19.1 |  | 
32 | COc1ccc(Nc2nc(OC)nc(N3CCOCC3)n2)cc1 |  |  | 0.082 µM [rising, full curve, poor fit]
33 | Cc1cc(C)c(C)c(OCCOCCN2CCOCC2)c1 | 2.21 | 2.31 µM [falling, partial curve, poor fit] | 6.51 µM [falling, single point]
34 | COc1ccc(N2CCN(C(=O)c3ccc(C)c(Cl)c3)CC2)cc1 | -11.7 |  | 0.082 µM [falling, full curve, poor fit]
35 | CCC(=O)c1c[nH]c(C(=O)NCCCN2CCOCC2)c1 | -106 | 25.9 µM [falling, partial curve, poor fit] | 0.651 µM [falling, single point]
36 | O=C(Nc1cccnc1)c1cccc(S(=O)(=O)Nc2cccc(Cl)c2)c1 | -4.72 |  | 29.1 µM [falling, single point]
37 | CN(C(=O)COC(=O)/C=C/c1ccc(C(F)(F)F)cc1)c1c(N)n(Cc2ccccc2)c(=O)[nH]c1=O | -46 | 13 µM [falling, partial curve] | 0.517 µM [falling, full curve, poor fit]
38 | CCCc1nnc(NC(=O)C2CCCO2)s1 (configuration not stated) | -27.9 | 1.03 µM [falling, single point] | 1.16 µM [falling, partial curve, poor fit]
39 | COC(=O)[C@@H](Cc1ccccc1)NC(=O)[C@H]1CCC(=O)N1C(=O)OCc1ccccc1 |  |  | 3.66 µM [falling, full curve]
40 | O=C(OCC(=O)N1CCN(c2ccccc2)CC1)C1CCCN1S(=O)(=O)c1ccc(Cl)cc1 (configuration not stated) | 124 | 20.6 µM [rising, partial curve] | 

Four structures already listed, ordered by number of heavy atoms, low to high.
Row | SMILES | cell number change [%] | AC50 [1] | AC50 [2]
26 | Cc1cccc(C)c1NC1=NCCCCC1 | 48.5 |  | 
34 | COc1ccc(N2CCN(C(=O)c3ccc(C)c(Cl)c3)CC2)cc1 | -11.7 |  | 0.082 µM [falling, full curve, poor fit]
21 | CCCCN1C2=C(C(=O)CC(C)(C)C2)C(c2ccccc2)C2=C1c1ccccc1C2=O (configuration not stated) |  | 6.51 µM [rising, single point] | 
27 | COc1ccc(Br)cc1C(=O)CCC(=O)OCC(=O)Nc1cc(C(N)=O)cc(C(N)=O)c1 | 10.5 |  | 

(further entries)

Row | SMILES | cell number change [%] | AC50 [1] | AC50 [2]
41 | CN(CCC1CCOCC1)C(=O)CC1C(=O)NCCN1Cc1c(F)cccc1Cl (configuration not stated) | 17.8 |  | 29.1 µM [falling, single point]
42 | CN(C)/C=C1\C=C2C(=O)c3ccccc3N2C1=O | -96.1 | 23.1 µM [falling, partial curve] | 4.11 µM [falling, full curve]
43 | Cc1ccc(S(=O)(=O)Nc2ccc(-n3cnnn3)cc2)c(C)c1 |  |  | 0.231 µM [falling, full curve]
44 | N#CC1=C(SCC(=O)c2cc3ccccc3oc2=O)NC(=O)C(C#N)C12CCCC2 (configuration not stated) |  |  | 1.03 µM [rising, full curve]
45 | Cc1occc1C(=O)Nc1cccc([N+](=O)[O-])c1 | 38 | 8.2 µM [rising, partial curve] | 6.51 µM [rising, single point]
46 | CC(C)c1ccc(S(=O)(=O)N2CCN(C(=O)c3cc([N+](=O)[O-])ccc3N3CCOCC3)CC2)cc1 | -11.4 |  | 29.1 µM [falling, single point]
47 | O=C(CCCOc1ccc(Cl)cc1Cl)Nc1ccncc1 | -10.3 |  | 0.00517 µM [rising, full curve, poor fit]
48 | Cc1occc1C(=O)NNC(=O)NC12CC3CC(CC(C3)C1)C2 | 2.21 |  | 1.03 µM [falling, partial curve, poor fit]
49 | NC(=S)N/N=C/c1coc2ccc(F)cc2c1=O | 27.2 |  | 
50 | Cc1ccc(C(=O)COC(=O)c2ccc(Br)o2)cc1C |  |  | 11.6 µM [rising, single point]
51 | COc1ccc(CCNC(=O)CSc2nc(O)c(CC(C)C)c(=O)[nH]2)cc1OC | -5.29 |  | 
52 | O=C(NC1CCS(=O)(=O)C1)C1C2CC3CC(C2)CC1C3 (configuration not stated) | -15.5 |  | 1.46 µM [falling, full curve]
53 | O=C1SC(Cc2ccccc2)C(=O)N1c1ccccc1 (configuration not stated) | 17 |  | 2.91 µM [rising, partial curve]
54 | CCCCN(CCCC)c1cc(C)nc(-c2ccccc2O)n1 | -34.9 | 10.3 µM [falling, partial curve, poor fit] | 0.259 µM [falling, full curve, poor fit]
55 | O=C(O)c1ccc(OS(=O)(=O)c2ccc(Cl)s2)cc1 | -4.29 |  | 29.1 µM [rising, single point]
56 | COc1ccccc1/C=C/C(=O)Nc1cccc(S(=O)(=O)NC2=NCCCCC2)c1 | 32.9 | 0.651 µM [rising, full curve, poor fit] | 29.1 µM [rising, partial curve, poor fit]
57 | COc1ccc(C(=O)NNC(=O)C2CC=CCC2)cc1 (configuration not stated) | 9.45 |  | 
58 | CN(C)S(=O)(=O)c1cccc(NC(=O)COC(=O)CCOc2ccccc2)c1 | -21.9 |  | 
59 | Cc1nnc(SCC(=O)NNC(=O)COc2ccc(Cl)cc2)n1C | 10.7 |  | 
